This note sets out measurements from PMC3746198.

Protein sequences, listed by entry. Tags and fused reporters are not part of them. Lines headed by an entry give the natural chain unless they say otherwise; changes in a name come on top.
UniProt P48432: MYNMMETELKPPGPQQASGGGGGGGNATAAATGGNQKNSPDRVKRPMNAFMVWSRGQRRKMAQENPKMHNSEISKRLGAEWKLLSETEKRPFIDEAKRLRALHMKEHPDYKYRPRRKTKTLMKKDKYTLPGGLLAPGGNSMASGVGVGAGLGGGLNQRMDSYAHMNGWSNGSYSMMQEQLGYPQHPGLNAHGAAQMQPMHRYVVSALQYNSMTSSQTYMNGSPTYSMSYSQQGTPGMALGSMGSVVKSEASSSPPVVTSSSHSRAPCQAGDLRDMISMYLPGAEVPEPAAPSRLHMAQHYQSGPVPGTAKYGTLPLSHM

Results are given in words; binding and its absence hold for the method and conditions named. In cells and extracts the contact can be indirect. For some of these results: A result given as binding can be weak or reduced; the word gives no strength. For some of these results: Where a sequence is shown, tags or fusion partners need not be part of it.

What all share (assay): co-IP; E14/T cells co-transfected with (HA)3-Nanog or mutants and (Flag)3Sox2 or mutants; nuclear extract (treated with benzonase); HA antibody 4°C 3 h, Protein G; immunoblot with anti-FLAG
The target of assay [1] is T1, (HA)3Nanog (UniProt Q80Z64).
T1 sequence: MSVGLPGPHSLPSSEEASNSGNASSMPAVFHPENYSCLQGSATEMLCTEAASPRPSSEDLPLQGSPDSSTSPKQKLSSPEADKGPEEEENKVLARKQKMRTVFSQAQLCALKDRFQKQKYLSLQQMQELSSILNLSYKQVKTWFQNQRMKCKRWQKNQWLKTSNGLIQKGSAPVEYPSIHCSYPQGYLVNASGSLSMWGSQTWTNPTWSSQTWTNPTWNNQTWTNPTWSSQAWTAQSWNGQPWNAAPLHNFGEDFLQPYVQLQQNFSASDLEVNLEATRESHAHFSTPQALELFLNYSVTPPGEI

Assay [2] concerns the target (HA)3-NanogΔHD (UniProt Q80Z64).
The target of assay [3] is (HA)3-NanogΔWR (UniProt Q80Z64).

On to (Flag)3-Sox2 ΔHMG (from UniProt P48432), for which the binding result in assay [1] and in assay [2] was “binds” throughout.

On to (Flag)3Sox2 (from UniProt P48432 1-319), for which the binding result is “no binding” in assay [3] and “binds” in assay [2].
